Data published in patent US6632625 (MERCK, dated 2003).
These are yes or no findings as the source states them, for the method shown. Some entries that bind do so weakly or less than the wild type.

Amino acid sequences for entries named in this document (tags omitted). A change or cut given only in a name is not applied to a line headed by its entry. Residues count along the entry.
UniProt P48357, residues 23-866: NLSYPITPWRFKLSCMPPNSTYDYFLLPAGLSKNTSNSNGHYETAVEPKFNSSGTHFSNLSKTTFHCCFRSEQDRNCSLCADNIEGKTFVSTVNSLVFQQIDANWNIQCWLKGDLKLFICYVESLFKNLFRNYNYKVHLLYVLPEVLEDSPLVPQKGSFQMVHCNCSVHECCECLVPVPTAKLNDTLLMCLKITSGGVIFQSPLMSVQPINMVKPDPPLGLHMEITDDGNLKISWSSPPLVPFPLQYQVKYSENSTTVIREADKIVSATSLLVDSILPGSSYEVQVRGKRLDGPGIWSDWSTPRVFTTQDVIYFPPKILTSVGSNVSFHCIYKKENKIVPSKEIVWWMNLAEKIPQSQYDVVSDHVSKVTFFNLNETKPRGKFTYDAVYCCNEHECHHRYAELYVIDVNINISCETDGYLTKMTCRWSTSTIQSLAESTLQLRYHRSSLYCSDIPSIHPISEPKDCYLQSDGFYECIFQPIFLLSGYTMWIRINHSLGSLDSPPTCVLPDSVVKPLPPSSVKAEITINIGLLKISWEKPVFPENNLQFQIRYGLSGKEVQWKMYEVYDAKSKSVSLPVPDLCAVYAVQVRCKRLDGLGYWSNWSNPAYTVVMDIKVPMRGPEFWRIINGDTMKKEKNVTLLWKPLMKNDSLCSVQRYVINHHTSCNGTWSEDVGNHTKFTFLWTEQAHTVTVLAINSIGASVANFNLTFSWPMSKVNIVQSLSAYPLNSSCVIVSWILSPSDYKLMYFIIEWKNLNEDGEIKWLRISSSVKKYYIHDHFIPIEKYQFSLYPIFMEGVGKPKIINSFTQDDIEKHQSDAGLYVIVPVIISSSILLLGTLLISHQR
UniProt P41159, residues 22-167: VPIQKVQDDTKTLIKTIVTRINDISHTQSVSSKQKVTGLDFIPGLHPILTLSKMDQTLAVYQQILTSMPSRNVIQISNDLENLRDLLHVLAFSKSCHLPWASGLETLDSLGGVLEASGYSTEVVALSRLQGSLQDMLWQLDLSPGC

Molecular target: deletion mutant D(867-1165) of the human OB-R (human) (UniProt P48357)
Test: leptin binding on transfected COS cells

**Q.** “recombinant human leptin (from UniProt P41159 22-167) (ligand)” was tested. Which binding did it give?
**A.** The binding was “binds”.
